Article PMC7647119
No constants are given. Whether binding was seen depends on the method and setting. A result given as binding can be weak or reduced; the word gives no strength. Tags and fused reporters may be left off the sequences shown. For some assays here: Binding seen in cells or lysates may run through a third protein.

Legend:
[1] = biological target: OsTAA1 Transcription Inhibition Factor 1 (OsTIF1), yeast two-hybrid fusion (rice (Oryza sativa)); test: two-hybrid; pGAD7 prey and pGBK7 bait constructs co-transformed into yeast AH109; growth on SD-Leu-Trp-His, SD-Leu-Trp as control; also with IAA, which inhibited the OsAsp1-OsTIF1 interaction
[2] = biological target: OsTIF1-HA (rice (Oryza sativa)); test: co-IP; OsTIF1-HA co-transformed with OsAsp1-GFP or GFP into rice mesophyll protoplasts, with or without 50 uM IAA for 16 h; OsTIF1-HA as bait, antibody-bound Dynabeads Protein A or G, blot with GFP antibody; interaction depressed with IAA

| binding [1] | binding [2] | Binder |
| --- | --- | --- |
| binds | – | Aspartic Protease 1 (OsAsp1), yeast two-hybrid fusion (protein, UniProt Q0IU52 1-410) MTARLALLASLLLLLQLVPPSSAVVLELHGNVYPIGHFFITMNIGDPAKSYFLDIDTGSTLTWLQCDAPCTNCNIVPHVLYKPTPKKLVTCADSLCTDLYTDLGKPKRCGSQKQCDYVIQYVDSSSMGVLVIDRFSLSASNGTNPTTIAFGCGYDQGKKNRNVPIPVDSILGLSRGKVTLLSQLKSQGVITKHVLGHCISSKGGGFLFFGDAQVPTSGVTWTPMNREHKYYSPGHGTLHFDSNSKAISAAPMAVIFDSGATYTYFAAQPYQATLSVVKSTLNSECKFLTEVTEKDRALTVCWKGKDKIVTIDEVKKCFRSLSLEFADGDKKATLEIPPEHYLIISQEGHVCLGILDGSKEHLSLAGTNLIGGITMLDQMVIYDSERSLLGWVNYQCDRIPRSESAITSRL |
| – | binds | OsAsp1-GFP (protein, UniProt Q0IU52 47-410) PAKSYFLDIDTGSTLTWLQCDAPCTNCNIVPHVLYKPTPKKLVTCADSLCTDLYTDLGKPKRCGSQKQCDYVIQYVDSSSMGVLVIDRFSLSASNGTNPTTIAFGCGYDQGKKNRNVPIPVDSILGLSRGKVTLLSQLKSQGVITKHVLGHCISSKGGGFLFFGDAQVPTSGVTWTPMNREHKYYSPGHGTLHFDSNSKAISAAPMAVIFDSGATYTYFAAQPYQATLSVVKSTLNSECKFLTEVTEKDRALTVCWKGKDKIVTIDEVKKCFRSLSLEFADGDKKATLEIPPEHYLIISQEGHVCLGILDGSKEHLSLAGTNLIGGITMLDQMVIYDSERSLLGWVNYQCDRIPRSESAITSRL |
